According to US20060234242:
The exact form of at least one protein or probe is not confirmed. Negatives hold for the conditions tested. For some of these results: At least one result comes from cells or an extract, where the contact may be indirect.

Sequences of proteins named here, by UniProt entry; tags and fusion partners are left off. A change or cut given only in a name is not applied to a line headed by its entry.
UniProt P26599: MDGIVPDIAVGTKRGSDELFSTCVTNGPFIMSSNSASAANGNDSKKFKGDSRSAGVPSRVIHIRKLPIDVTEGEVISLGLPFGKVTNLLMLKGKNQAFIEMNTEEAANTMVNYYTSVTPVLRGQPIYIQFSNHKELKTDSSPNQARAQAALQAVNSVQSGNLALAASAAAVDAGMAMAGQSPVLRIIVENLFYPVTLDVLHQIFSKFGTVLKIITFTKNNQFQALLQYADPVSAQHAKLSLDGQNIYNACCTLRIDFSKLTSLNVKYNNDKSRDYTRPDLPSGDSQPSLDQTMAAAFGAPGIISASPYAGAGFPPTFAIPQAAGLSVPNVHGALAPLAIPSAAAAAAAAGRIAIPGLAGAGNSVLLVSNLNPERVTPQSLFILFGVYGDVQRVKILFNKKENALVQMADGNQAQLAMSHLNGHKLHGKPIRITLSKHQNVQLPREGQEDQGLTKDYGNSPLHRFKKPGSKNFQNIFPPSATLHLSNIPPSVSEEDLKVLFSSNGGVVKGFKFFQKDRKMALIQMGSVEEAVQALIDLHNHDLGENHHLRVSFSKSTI
UniProt Q00438: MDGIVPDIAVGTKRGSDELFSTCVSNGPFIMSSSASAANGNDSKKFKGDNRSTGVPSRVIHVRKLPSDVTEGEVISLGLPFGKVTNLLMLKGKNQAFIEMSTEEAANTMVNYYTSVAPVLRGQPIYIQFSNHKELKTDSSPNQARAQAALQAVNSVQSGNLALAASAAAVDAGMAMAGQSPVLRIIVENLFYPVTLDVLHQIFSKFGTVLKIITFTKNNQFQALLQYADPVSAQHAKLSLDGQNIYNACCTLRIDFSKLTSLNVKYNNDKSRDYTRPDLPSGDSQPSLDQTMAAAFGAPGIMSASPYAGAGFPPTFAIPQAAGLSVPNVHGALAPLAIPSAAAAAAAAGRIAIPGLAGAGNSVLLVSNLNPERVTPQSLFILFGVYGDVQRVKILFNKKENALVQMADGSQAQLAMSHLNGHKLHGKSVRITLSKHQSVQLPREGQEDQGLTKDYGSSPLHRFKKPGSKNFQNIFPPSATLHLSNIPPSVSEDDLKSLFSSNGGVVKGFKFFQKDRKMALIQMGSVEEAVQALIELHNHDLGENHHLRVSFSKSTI

Columns and labels:
[1] = biological target: PTB (recombinant, GST-PTB) (Homo sapiens) (UniProt P26599); assay: pull-down; conditions: recombinant PTB also evaluated (tag not stated in this paragraph); purified recombinant protein; protein details: GST (pGEX4T); label: biotin
[2] = biological target: PTB (polypyrimidine tract binding protein, native from INS-1 cell lysate) (UniProt Q00438); assay: pull-down; conditions: protein in an extract, label: biotin

AGCCCTAAGTGACCAGCTACAGTCGGAAACCATCAGCAAGCAGGTCATTGTTCCAAC [preproinsulin 5'-UTR element]
binding result [1]: no binding | binding result ([2]; 150 mM NaCl, 4 C, PTB does not bind 5'-UTR): no binding

GCCCACCACUACCCUGACCACCCCUCUGCAAUGAAUAAAACCUUUGAAAGAGC [preproinsulin 3'-UTR probe (Example 8)]
binding result ([2]; 300 mM NaCl, RLB buffer, glucose (15 mM) gives acute transient increase in binding): binds

UGAAUACAAGCUCACGACCCACUACACAAGCUACCAGAUACAACAACAAGCAUCCACC [control RNA oligonucleotide (Example 8)]
binding result ([2]; 300 mM NaCl, RLB buffer, no binding detected): no binding
